Where two headings read alike, the source gives them in different places. No constants are given. Whether binding was seen depends on the method and setting. Binding seen in cells or lysates may run through a third protein. Some entries that bind do so weakly or less than the wild type. For some of these results: Where a sequence is shown, tags or fusion partners need not be part of it.
Columns and labels:
[1] = molecular target: T1, Flag-Smad6-NLS (nuclear-forced full-length human Smad6) (human) (UniProt O43541); experiment: co-IP; 293T cells transiently transfected with expression plasmids for 48 h; lysates in RIPA buffer; IP with the indicated antibodies (anti-Flag, anti-HA), western blot
T1 sequence: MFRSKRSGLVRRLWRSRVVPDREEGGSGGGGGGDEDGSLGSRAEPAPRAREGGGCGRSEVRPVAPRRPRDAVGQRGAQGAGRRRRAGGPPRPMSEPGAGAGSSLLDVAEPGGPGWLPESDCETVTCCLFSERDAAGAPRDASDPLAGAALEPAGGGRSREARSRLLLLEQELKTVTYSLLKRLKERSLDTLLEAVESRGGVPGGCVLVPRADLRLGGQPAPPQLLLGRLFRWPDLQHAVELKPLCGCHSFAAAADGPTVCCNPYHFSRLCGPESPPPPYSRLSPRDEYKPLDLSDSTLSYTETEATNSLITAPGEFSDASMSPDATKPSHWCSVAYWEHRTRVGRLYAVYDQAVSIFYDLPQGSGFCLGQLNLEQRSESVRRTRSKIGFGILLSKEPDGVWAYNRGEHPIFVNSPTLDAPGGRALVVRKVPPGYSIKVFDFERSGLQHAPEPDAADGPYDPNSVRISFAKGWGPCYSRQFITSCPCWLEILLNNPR

The chains behind the UniProt entries cited, without tags or fusion partners.
UniProt Q9HCE7: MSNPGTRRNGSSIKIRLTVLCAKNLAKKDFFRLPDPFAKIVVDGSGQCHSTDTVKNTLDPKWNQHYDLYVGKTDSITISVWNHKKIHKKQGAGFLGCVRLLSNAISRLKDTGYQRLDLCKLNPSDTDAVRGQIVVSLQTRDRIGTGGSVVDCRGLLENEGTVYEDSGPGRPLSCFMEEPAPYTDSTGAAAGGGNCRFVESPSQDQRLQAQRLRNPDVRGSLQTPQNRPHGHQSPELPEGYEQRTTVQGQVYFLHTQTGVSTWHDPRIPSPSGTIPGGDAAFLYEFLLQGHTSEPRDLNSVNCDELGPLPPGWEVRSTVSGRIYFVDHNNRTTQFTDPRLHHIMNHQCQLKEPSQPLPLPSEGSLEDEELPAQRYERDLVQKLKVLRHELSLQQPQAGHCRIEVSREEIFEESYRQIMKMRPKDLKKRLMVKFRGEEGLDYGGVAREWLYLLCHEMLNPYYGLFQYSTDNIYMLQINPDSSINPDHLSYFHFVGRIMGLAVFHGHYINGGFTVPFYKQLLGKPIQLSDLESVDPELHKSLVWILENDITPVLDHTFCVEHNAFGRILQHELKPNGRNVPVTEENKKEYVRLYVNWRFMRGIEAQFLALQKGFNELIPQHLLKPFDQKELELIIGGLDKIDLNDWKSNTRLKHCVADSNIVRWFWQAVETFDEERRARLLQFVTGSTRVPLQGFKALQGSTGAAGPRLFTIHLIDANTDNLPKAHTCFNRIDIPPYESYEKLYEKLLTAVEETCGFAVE

[2] = molecular target: T2, PIAS3, endogenous in glioma cells (human (endogenous in glioma cells)) (UniProt Q9Y6X2); experiment: co-IP; endogenous proteins in glioma cells (Supplementary Figure 11)
T2 sequence: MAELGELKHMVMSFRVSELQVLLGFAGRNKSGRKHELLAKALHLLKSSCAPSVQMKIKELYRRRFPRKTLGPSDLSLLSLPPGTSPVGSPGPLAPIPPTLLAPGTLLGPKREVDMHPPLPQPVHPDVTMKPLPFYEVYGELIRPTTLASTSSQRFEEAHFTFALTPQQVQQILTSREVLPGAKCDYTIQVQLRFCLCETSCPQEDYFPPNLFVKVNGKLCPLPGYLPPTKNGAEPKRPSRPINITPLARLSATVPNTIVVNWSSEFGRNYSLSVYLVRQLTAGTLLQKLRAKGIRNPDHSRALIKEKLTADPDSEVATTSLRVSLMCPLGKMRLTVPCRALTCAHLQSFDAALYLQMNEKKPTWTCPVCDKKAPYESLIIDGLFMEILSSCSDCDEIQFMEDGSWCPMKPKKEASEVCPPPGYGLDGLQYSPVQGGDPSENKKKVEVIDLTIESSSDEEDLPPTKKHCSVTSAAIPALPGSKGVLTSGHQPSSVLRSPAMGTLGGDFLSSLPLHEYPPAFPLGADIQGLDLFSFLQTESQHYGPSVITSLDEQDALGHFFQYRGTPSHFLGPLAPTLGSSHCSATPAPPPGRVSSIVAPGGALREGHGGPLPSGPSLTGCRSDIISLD

[3] = molecular target: T1, Flag-Smad6-NLS (nuclear-forced full-length human Smad6) (human); experiment: co-IP; 293T cells transiently transfected with expression plasmids for 48 h; lysates in RIPA buffer; IP with the indicated antibodies (anti-Flag, anti-HA), western blot; remark: listed apart in the source
[4] = molecular target: T3, His-MH2-NLS (Smad6 MH2 domain construct) (human) (UniProt O43541); experiment: as above
T3 sequence: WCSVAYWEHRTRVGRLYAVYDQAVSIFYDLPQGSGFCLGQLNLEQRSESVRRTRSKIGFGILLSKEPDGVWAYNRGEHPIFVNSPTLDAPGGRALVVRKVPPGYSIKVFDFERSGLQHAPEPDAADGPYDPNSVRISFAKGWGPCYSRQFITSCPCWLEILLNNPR

[5] = molecular target: TAT-MH2-NLS (cell-penetrating Smad6 MH2 protein) (human | HIV) (UniProt O43541); experiment: co-IP; 293T cells transfected with HA-PIAS3 and treated with 1.0 ug/ml purified TAT-MH2-NLS; IP with anti-His antibody; only the target purified
[6] = molecular target: T4, GST-Smad6 fusion protein (human) (UniProt O43541); experiment: pull-down; GST fusion protein bound to glutathione-agarose beads, incubated 2 h with total lysate of transfected 293T cells; washed three times with GST lysis buffer; western blot; only the target purified
T4 sequence: T1 sequence

[7] = molecular target: T5, HA-PIAS3 (full-length human PIAS3) (human) (UniProt Q9Y6X2); experiment: co-IP; 293T cells transiently transfected with expression plasmids for 48 h; lysates in RIPA buffer; IP with the indicated antibodies (anti-Flag, anti-HA), western blot
T5 sequence: T2 sequence

[8] = molecular target: T6, GST-PIAS3 (human) (UniProt Q9Y6X2); experiment: pull-down; GST fusion protein bound to glutathione-agarose beads, incubated 2 h with total lysate of transfected 293T cells; washed three times with GST lysis buffer; western blot; only the target purified
T6 sequence: T2 sequence

## His-tagged Smurf1 (human, full length) (from UniProt Q9HCE7 1-757) (enzyme)
[1]
  binding: binds

B1: Smad6, endogenous in glioma cells (protein, UniProt O43541 1-496)
chain: T1 sequence
[2]
  binding: binds

B2: HA-Ring-NLS (PIAS3 Ring domain construct) (domain or fragment, UniProt Q9Y6X2 303-380)
chain: LIKEKLTADPDSEVATTSLRVSLMCPLGKMRLTVPCRALTCAHLQSFDAALYLQMNEKKPTWTCPVCDKKAPYESLII
[3]
  binding: binds
[4]
  binding: binds

B3: HA-PIAS3 (full-length human PIAS3) (protein, UniProt Q9Y6X2 1-628)
chain: T2 sequence
[5]
  binding: binds
[3]
  binding: binds
[6]
  binding: binds

B4: Flag-Smad6-NLS (nuclear-forced full-length human Smad6) (protein, UniProt O43541 1-496)
chain: T1 sequence
[7]
  binding: binds
[8]
  binding: binds

B5: Flag-tagged nuclear Smad6 with MH1 deletion (dMH1, residues 182-496) (domain or fragment, UniProt O43541 182-496)
chain: RLKERSLDTLLEAVESRGGVPGGCVLVPRADLRLGGQPAPPQLLLGRLFRWPDLQHAVELKPLCGCHSFAAAADGPTVCCNPYHFSRLCGPESPPPPYSRLSPRDEYKPLDLSDSTLSYTETEATNSLITAPGEFSDASMSPDATKPSHWCSVAYWEHRTRVGRLYAVYDQAVSIFYDLPQGSGFCLGQLNLEQRSESVRRTRSKIGFGILLSKEPDGVWAYNRGEHPIFVNSPTLDAPGGRALVVRKVPPGYSIKVFDFERSGLQHAPEPDAADGPYDPNSVRISFAKGWGPCYSRQFITSCPCWLEILLNNPR
[7]
  binding: binds

B6: Flag-tagged nuclear Smad6 with Linker domain deletion (dLinker, residues 1-181 ~ 332-496) (domain or fragment, UniProt O43541)
chain: MFRSKRSGLVRRLWRSRVVPDREEGGSGGGGGGDEDGSLGSRAEPAPRAREGGGCGRSEVRPVAPRRPRDAVGQRGAQGAGRRRRAGGPPRPMSEPGAGAGSSLLDVAEPGGPGWLPESDCETVTCCLFSERDAAGAPRDASDPLAGAALEPAGGGRSREARSRLLLLEQELKTVTYSLLKCSVAYWEHRTRVGRLYAVYDQAVSIFYDLPQGSGFCLGQLNLEQRSESVRRTRSKIGFGILLSKEPDGVWAYNRGEHPIFVNSPTLDAPGGRALVVRKVPPGYSIKVFDFERSGLQHAPEPDAADGPYDPNSVRISFAKGWGPCYSRQFITSCPCWLEILLNNPR
[7]
  binding: binds

B7: His-MH2-NLS (Smad6 MH2 domain construct) (domain or fragment, UniProt O43541 331-496)
chain: T3 sequence
[7]
  binding: binds

B8: Flag-tagged nuclear Smad6 with MH2 deletion (dMH2, residues 1-331) (domain or fragment, UniProt O43541 1-331)
chain: MFRSKRSGLVRRLWRSRVVPDREEGGSGGGGGGDEDGSLGSRAEPAPRAREGGGCGRSEVRPVAPRRPRDAVGQRGAQGAGRRRRAGGPPRPMSEPGAGAGSSLLDVAEPGGPGWLPESDCETVTCCLFSERDAAGAPRDASDPLAGAALEPAGGGRSREARSRLLLLEQELKTVTYSLLKRLKERSLDTLLEAVESRGGVPGGCVLVPRADLRLGGQPAPPQLLLGRLFRWPDLQHAVELKPLCGCHSFAAAADGPTVCCNPYHFSRLCGPESPPPPYSRLSPRDEYKPLDLSDSTLSYTETEATNSLITAPGEFSDASMSPDATKPSHW
[7]
  binding: no binding

Reference: paper PMC6021382
